Measurements taken from patent publication US20200405868A1, “GEL-FORMING POLYPEPTIDES” (priority 2018, published 2020).

Assay: Release assay with Centricon Centrifugal Filter Units (FITC-labeled molecules with carrier peptide)
[1] = FITC-labeled GnRH, carrier 1mg/10ml, lower chamber
[2] = FITC-labeled GnRH, carrier 1mg/100ml, lower chamber
[3] = FITC-labeled Morpholino, carrier 1mg/10ml, lower chamber
[4] = FITC-labeled Morpholino, carrier 1mg/100ml, lower chamber
[5] = FITC-labeled dUTP, carrier 1mg/10ml, lower chamber
[6] = FITC-labeled dUTP, carrier 1mg/100ml, lower chamber

Substance	Fluorescent Reading (average of duplicates) (FITC-labeled Dexmethasone, carrier 1mg/10ml)	Fluorescent Reading (average of duplicates) (FITC-labeled Naloxone, carrier 1mg/10ml)	Fluorescent Reading (average of duplicates) (FITC-labeled Dexmethasone, carrier 1mg/100ml)	Fluorescent Reading (average of duplicates) [1]	Fluorescent Reading (average of duplicates) [2]	Fluorescent Reading (average of duplicates) [3]	Fluorescent Reading (average of duplicates) [4]	Fluorescent Reading (average of duplicates) (FITC-labeled Naloxone, carrier 1mg/100ml)	Fluorescent Reading (average of duplicates) [5]	Fluorescent Reading (average of duplicates) [6]
Pal-KVQKLSAPVDPSSPHSY-NH2 [SEQ ID NO:109]	4.29	1.38								
Pal-SSPHSY-NH2 [SEQ ID NO:119]			1.60	9.00	58.37	5.56	15.83	0.60	0.14	2.67
Pal-VGSNTY-NH2 [SEQ ID NO:133]				55.43	70.95	22.31	20.25		9.22	6.23
